# Measurements as given in the supplement of paper PMC12067093, “Discovery and optimisation of a covalent ligand for TRIM25 and its application to targeted protein ubiquitination” (Chemical Science, 2025).
# Chains of the proteins cited; added tags and fusions are not shown. Lines headed by an entry give the natural chain unless they say otherwise; changes in a name come on top.
# UniProt Q9NP81: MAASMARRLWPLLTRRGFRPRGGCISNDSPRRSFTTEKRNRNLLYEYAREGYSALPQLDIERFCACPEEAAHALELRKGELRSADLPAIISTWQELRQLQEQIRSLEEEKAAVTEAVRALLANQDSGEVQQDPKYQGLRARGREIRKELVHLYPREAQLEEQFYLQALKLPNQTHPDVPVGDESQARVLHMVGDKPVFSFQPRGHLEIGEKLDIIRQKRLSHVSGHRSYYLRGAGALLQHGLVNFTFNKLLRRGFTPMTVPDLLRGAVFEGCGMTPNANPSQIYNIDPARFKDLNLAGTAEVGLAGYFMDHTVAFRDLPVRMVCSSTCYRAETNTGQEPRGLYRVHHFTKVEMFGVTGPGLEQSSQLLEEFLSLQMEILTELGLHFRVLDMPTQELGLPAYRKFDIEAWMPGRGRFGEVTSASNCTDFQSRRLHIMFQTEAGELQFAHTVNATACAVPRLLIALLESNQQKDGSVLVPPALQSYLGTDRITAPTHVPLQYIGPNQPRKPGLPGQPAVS
# UniProt P49591: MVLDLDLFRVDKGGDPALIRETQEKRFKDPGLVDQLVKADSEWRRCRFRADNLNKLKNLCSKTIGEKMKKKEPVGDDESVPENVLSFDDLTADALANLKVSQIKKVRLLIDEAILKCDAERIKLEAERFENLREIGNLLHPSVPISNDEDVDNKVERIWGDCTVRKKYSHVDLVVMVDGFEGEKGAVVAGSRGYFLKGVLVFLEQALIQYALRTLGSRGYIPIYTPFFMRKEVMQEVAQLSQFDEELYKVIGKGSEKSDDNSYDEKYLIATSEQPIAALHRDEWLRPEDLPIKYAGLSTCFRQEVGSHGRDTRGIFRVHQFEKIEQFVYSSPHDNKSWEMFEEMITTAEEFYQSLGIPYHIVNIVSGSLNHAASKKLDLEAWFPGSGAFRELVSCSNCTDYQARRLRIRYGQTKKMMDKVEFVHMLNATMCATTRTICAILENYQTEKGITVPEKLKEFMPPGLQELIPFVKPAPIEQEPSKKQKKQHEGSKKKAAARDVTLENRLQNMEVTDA
# This is one part of the list.
# Assays:
# Experiment in all cases: probe-labelled cysteine peptide fold change vs DMSO (competition) (log2 fold change); higher = less target engagement (more negative = stronger competition)
# Settings in all cases: THP-1, incubation time: 4 h
# [1] = target: SARS2_Q9NP81_425_FGEVTSASNCTDFQSR (UniProt Q9NP81)
# [2] = target: SARS2_Q9NP81_64_FCACPEEAAHALELR (UniProt Q9NP81)
# [3] = target: SARS_P49591_162_IWGDCTVR (UniProt P49591)
# [4] = target: SARS_P49591_395+398_ELVSCSNCTDYQAR (UniProt P49591)
# [5] = target: SARS_P49591_395_ELVSCSNCTDYQAR (UniProt P49591)
# [6] = target: SARS_P49591_398_ELVSCSNCTDYQAR (UniProt P49591)
# [7] = target: SARS_P49591_431_VEFVHMLNATMCATTR (UniProt P49591)
# [8] = target: SARS_P49591_438_TICAILENYQTEK (UniProt P49591)
# 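Further: competitive profiling in live THP-1 cells: cysteine peptides tagged with an iodoacetamide desthiobiotin (IA-DTB) probe, intensity after compound treatment relative to DMSO-treated cells.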
smiles,measurement,setting,value
Cc1cc(C(=O)N2CCCN(C(=O)CCl)CC2)ccc1-c1ccccc1 [compound 10],probe-labelled cysteine peptide fold change,[1]; 10 µM,-0.265
same,probe-labelled cysteine peptide fold change,[1]; 50 µM,-0.119
same,probe-labelled cysteine peptide fold change,[2]; 10 µM,-0.325
same,probe-labelled cysteine peptide fold change,[2]; 50 µM,-0.305
same,probe-labelled cysteine peptide fold change,[3]; 10 µM,0.0369
same,probe-labelled cysteine peptide fold change,[3]; 50 µM,0.0952
same,probe-labelled cysteine peptide fold change,[4]; 10 µM,-0.202
same,probe-labelled cysteine peptide fold change,[4]; 50 µM,-0.287
same,probe-labelled cysteine peptide fold change,[5]; 10 µM,0.0595
same,probe-labelled cysteine peptide fold change,[5]; 50 µM,0.0655
same,probe-labelled cysteine peptide fold change,[6]; 10 µM,0.0991
same,probe-labelled cysteine peptide fold change,[6]; 50 µM,0.119
same,probe-labelled cysteine peptide fold change,[7]; 10 µM,0.142
same,probe-labelled cysteine peptide fold change,[7]; 50 µM,0.182
same,probe-labelled cysteine peptide fold change,[8]; 10 µM,0.149
same,probe-labelled cysteine peptide fold change,[8]; 50 µM,0.143

# Two records picked at random from the list so far:
smiles,measurement,setting,value
Cc1cc(C(=O)N2CCCN(C(=O)CCl)CC2)ccc1-c1ccccc1 [compound 10],probe-labelled cysteine peptide fold change,[5]; 10 µM,0.0595
same,probe-labelled cysteine peptide fold change,[8]; 50 µM,0.143
